Test results from article PMC9825174.
Results are given in words; binding and its absence hold for the method and conditions named. Some entries that bind do so weakly or less than the wild type.

By UniProt entry, the sequences of proteins in these tests, tags left out.
UniProt Q16531: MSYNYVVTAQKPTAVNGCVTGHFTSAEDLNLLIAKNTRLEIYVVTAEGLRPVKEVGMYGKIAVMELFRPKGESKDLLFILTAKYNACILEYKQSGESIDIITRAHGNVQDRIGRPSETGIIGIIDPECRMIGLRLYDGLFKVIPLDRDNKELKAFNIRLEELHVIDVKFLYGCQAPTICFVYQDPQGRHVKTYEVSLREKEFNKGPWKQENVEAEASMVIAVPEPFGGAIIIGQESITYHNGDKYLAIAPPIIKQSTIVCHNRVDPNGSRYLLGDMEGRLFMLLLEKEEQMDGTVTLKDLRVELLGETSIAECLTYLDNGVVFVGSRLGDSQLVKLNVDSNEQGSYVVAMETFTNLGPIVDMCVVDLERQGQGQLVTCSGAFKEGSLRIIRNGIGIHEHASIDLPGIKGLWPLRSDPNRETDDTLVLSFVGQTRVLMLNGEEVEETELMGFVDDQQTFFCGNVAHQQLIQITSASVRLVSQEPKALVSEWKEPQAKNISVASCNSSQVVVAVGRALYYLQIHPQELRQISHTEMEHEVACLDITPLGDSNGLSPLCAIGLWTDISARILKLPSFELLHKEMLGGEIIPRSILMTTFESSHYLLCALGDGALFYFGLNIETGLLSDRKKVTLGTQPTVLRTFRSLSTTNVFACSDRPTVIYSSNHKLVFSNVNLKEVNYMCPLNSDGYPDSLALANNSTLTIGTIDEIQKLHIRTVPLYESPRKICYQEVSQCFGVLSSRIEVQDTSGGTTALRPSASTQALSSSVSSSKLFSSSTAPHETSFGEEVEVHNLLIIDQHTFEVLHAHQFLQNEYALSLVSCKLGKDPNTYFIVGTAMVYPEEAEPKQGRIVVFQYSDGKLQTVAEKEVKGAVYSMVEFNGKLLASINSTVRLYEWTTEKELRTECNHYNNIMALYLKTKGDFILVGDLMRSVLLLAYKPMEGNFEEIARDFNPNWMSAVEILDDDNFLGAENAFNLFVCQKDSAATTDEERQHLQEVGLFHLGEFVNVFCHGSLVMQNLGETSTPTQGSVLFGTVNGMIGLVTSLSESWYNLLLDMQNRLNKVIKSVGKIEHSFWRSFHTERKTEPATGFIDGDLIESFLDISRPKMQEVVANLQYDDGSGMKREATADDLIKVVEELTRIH
UniProt Q92466: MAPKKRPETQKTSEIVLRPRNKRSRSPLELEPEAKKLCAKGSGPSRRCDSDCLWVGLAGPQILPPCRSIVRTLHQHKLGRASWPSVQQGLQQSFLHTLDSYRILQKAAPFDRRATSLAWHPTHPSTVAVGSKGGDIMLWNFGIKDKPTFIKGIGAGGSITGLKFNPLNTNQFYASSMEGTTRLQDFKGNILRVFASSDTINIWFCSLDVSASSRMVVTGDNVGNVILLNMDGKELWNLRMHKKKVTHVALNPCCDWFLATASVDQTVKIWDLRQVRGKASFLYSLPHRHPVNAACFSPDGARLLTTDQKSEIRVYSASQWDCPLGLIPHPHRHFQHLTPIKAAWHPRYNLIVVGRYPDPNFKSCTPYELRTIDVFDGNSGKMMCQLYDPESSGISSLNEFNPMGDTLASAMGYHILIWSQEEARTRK

Biological target: DDB1-His6 (UniProt Q16531)
Assay: co-purification (Ni affinity, anti-FLAG affinity, SEC); DDB1-His6 and DDB2-Flag co-expressed in Sf9; His-Trap HP column, anti-FLAG M2 affinity gel, then HiLoad 16/60 Superdex 200 in 50 mM HEPES pH 7.5, 200 mM KCl, 1 mM EDTA, 2 mM DTT, 10% glycerol

binding: binds
Substance: DDB2-Flag (from UniProt Q92466 1-427)
